Laboratory results: US20230103330A1, “MECHANISTIC BIOMARKER FOR PREDICTING THE SURVIVAL OF PANCREATIC CANCER PATIENTS” (The Regents of the University of California, priority 2020, published 2023)
These are yes or no findings as the source states them, for the method shown. For some assays here: In cells and extracts the contact can be indirect. Some entries that bind do so weakly or less than the wild type. Where a sequence is shown, tags or fusion partners need not be part of it.

Amino acid sequences for entries named in this document (tags omitted). A change or cut given only in a name is not applied to a line headed by its entry. Chains listed by the source or under a name are the forms on record and can include a tag or linker.
HA-PKCβII K371R (kinase-dead) (P68403, form named): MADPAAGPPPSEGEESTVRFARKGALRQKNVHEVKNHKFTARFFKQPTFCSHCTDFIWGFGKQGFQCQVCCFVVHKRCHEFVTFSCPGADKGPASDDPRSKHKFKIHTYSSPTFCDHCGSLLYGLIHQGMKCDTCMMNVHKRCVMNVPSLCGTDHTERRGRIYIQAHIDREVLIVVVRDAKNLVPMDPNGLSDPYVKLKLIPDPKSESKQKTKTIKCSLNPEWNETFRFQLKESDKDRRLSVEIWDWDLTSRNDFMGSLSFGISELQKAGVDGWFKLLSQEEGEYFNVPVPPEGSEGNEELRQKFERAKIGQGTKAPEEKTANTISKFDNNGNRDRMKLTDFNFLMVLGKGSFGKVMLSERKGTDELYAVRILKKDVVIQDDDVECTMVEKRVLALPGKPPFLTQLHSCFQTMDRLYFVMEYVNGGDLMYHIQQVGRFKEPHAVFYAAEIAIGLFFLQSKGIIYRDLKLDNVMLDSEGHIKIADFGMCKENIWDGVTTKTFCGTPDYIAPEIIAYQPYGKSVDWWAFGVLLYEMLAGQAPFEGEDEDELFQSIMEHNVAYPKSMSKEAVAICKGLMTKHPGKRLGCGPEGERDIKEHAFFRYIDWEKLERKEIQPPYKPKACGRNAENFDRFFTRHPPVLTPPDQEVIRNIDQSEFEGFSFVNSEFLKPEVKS
HA-PKCβII wild type, faster-mobility unphosphorylated species of 35S-labeled (newly synthesized) PKC (P68403, form named): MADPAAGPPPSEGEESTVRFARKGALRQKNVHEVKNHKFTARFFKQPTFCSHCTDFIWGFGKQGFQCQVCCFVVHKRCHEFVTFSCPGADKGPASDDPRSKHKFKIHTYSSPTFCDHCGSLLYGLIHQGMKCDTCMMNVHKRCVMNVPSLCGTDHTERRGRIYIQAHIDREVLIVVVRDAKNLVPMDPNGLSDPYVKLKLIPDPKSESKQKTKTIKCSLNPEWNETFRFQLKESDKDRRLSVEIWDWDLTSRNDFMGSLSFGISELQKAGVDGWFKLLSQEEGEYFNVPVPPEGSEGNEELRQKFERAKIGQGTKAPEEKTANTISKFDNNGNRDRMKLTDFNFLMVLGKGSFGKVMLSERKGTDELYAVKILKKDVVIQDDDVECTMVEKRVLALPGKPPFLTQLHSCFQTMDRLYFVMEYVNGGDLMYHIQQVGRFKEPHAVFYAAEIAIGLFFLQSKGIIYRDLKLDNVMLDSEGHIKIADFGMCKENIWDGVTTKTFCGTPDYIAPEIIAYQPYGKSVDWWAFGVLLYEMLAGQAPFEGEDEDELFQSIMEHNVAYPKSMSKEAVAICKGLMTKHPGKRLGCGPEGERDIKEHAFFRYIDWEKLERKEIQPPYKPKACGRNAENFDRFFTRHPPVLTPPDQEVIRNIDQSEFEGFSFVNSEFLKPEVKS

What was measured:
[1] = biological target: HA-PKCβII K371R (kinase-dead) (rat) (UniProt P68403); assay: co-immunoprecipitation (FLAG IP) from COS7 cells, immunoblot
[2] = biological target: HA-PKCβII wild type, faster-mobility unphosphorylated species of 35S-labeled (newly synthesized) PKC (rat) (UniProt P68403); assay: 35S pulse-chase in COS7 cells, FLAG immunoprecipitation, autoradiography

binding [1]: binds
binding [2]: binds
B1: FLAG-PHLPP1 (PH domain and leucine rich repeat protein phosphatase 1) (enzyme, UniProt O60346-2 1-1205, looked up, not shown: small tags and cut ends)
chain: MDSEIGCLIRFYAGKPHSTGSSERIQLSGMYNVRKGKMQLPVNRWTRRQVILCGTCLIVSSVKDSLTGKMHVLPLIGGKVEEVKKHQHCLAFSSSGPQSQTYYICFDTFTEYLRWLRQVSKVASQRISSVDLSCCSLEHLPANLFYSQDLTHLNLKQNFLRQNPSLPAARGLNELQRFTKLKSLNLSNNHLGDFPLAVCSIPTLAELNVSCNALRSVPAAVGVMHNLQTFLLDGNFLQSLPAELENMKQLSYLGLSFNEFTDIPEVLEKLTAVDKLCMSGNCVETLRLQALRKMPHIKHVDLRLNVIRKLIADEVDFLQHVTQLDLRDNKLGDLDAMIFNNIEVLHCERNQLVTLDICGYFLKALYASSNELVQLDVYPVPNYLSYMDVSRNRLENVPEWVCESRKLEVLDIGHNQICELPARLFCNSSLRKLLAGHNQLARLPERLERTSVEVLDVQHNQLLELPPNLLMKADSLRFLNASANKLESLPPATLSEETNSILQELYLTNNSLTDKCVPLLTGHPHLKILHMAYNRLQSFPASKMAKLEELEEIDLSGNKLKAIPTTIMNCRRMHTVIAHSNCIEVFPEVMQLPEIKCVDLSCNELSEVTLPENLPPKLQELDLTGNPRLVLDHKTLELLNNIRCFKIDQPSTGDASGAPAVWSHGYTEASGVKNKLCVAALSVNNFCDNREALYGVFDGDRNVEVPYLLQCTMSDILAEELQKTKNEEEYMVNTFIVMQRKLGTAGQKLGGAAVLCHIKHDPVDPGGSFTLTSANVGKCQTVLCRNGKPLPLSRSYIMSCEEELKRIKQHKAIITEDGKVNGVTESTRILGYTFLHPSVVPRPHVQSVLLTPQDEFFILGSKGLWDSLSVEEAVEAVRNVPDALAAAKKLCTLAQSYGCHDSISAVVVQLSVTEDSFCCCELSAGGAVPPPSPGIFPPSVNMVIKDRPSDGLGVPSSSSGMASEISSELSTSEMSSEVGSTASDEPPPGALSENSPAYPSEQRCMLHPICLSNSFQRQLSSATFSSAFSDNGLDSDDEEPIEGVFTNGSRVEVEVDIHCSRAKEKEKQQHLLQVPAEASDEGIVISANEDEPGLPRKADFSAVGTIGRRRANGSVAPQERSHNVIEVATDAPLRKPGGYFAAPAQPDPDDQFIIPPELEEEVKEIMKHHQEQQQQQQPPPPPQLQPQLPRHYQLDQLPDYYDTPL
